# Data taken from the supplement of paper PMC8728848.
# The other results are listed elsewhere or left out.
# B1: Flo10 (Saccharomyces cerevisiae), P36170 (protein)
# chain: MPVAARYIFLTGLFLLSVANVALGTTEACLPAGEKKNGMTINFYQYSLKDSSTYSNPSYMAYGYADAEKLGSVSGQTKLSIDYSIPCNGASDTCACSDDDATEYSASQVVPVKRGVKLCSDNTTLSSKTEKRENDDCDQGAAYWSSDLFGFYTTPTNVTVEMTGYFLPPKTGTYTFGFATVDDSAILSVGGNVAFECCKQEQPPITSTDFTINGIKPWNADAPTDIKGSTYMYAGYYYPIKIVYSNAVSWGTLPVSVVLPDGTEVNDDFEGYVFSFDDNATQAHCSVPNPAEHARTCVSSATSSWSSSEVCTECTETESTSYVTPYVTSSSWSSSEVCTECTETESTSTSTPYVTSSSSSSSEVCTECTETESTSYVTPYVSSSTAAANYTSSFSSSSEVCTECTETESTSTSTPYVTSSSWSSSEVCTECTETESTSYVTPYVSSSTAAANYTSSFSSSSEVCTECTETESTSTSTPYVTSSSSSSSEVCTECTETESTSYVTPYVSSSTAAANYTSSFSSSSEVCTECTETESTSTSTPYVTSSSWSSSEVCTECTETESTSYVTPYVSSSTAAANYTSSFSSSSEVCTECTETESTSTSTPYATSSTGTATSFTASTSNTMTSLVQTDTTVSFSLSSTVSEHTNAPTSSVESNASTFISSNKGSVKSYVTSSIHSITPMYPSNQTVTSSSVVSTPITSESSESSASVTILPSTITSEFKPSTMKTKVVSISSSPTNLITSYDTTSKDSTVGSSTSSVSLISSISLPSSYSASSEQIFHSSIVSSNGQALTSFSSTKVSSSESSESHRTSPTTSSESGIKSSGVEIESTSTSSFSFHETSTASTSVQISSQFVTPSSPISTVAPRSTGLNSQTESTNSSKETMSSENSASVMPSSSATSPKTGKVTSDETSSGFSRDRTTVYRMTSETPSTNEQTTLITVSSCESNSCSNTVSSAVVSTATTTINGITTEYTTWCPLSATELTTVSKLESEEKTTLITVTSCESGVCSETASPAIVSTATATVNDVVTVYSTWSPQATNKLAVSSDIENSASKASFVSEAAETKSISRNNNFVPTSGTTSIETHTTTTSNASENSDNVSASEAVSSKSVTNPVLISVSQQPRGTPASSMIGSSTASLEMSSYLGIANHLLTNSGISIFIASLLLAIV
# Key:
# Assay in all cases: glycan array binding signal (z-score within array); higher = stronger binding
# Details in all cases: glycan notation: IUPAC condensed, linker removed
# [1] = molecular target: Gal(b1-4)GlcNAc(a1-6)Gal(b1-4)GlcNAc
# Summary of the method: (§1)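 The binding signal is a Z-score computed within each array. Data were drawn from 3228 arrays in the Consortium for Functional Glycomics database, restricted to those with a known protein sequence. Scores were averaged over arrays of the same protein sequence at different concentrations or buffers, and over linkers, and negative values can be taken as non-binding.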
# [2] = molecular target: Gal(b1-4)GlcNAc(b1-2)Man(a1-3)Man(b1-4)GlcNAc(b1-4)GlcNAc
# Summary of the method: as §1
# [3] = molecular target: Gal(b1-4)GlcNAc(b1-2)Man(a1-3)[Gal(b1-4)GlcNAc(b1-2)Man(a1-6)]Man(b1-4)GlcNAc(b1-4)GlcNAc
# Summary of the method: as §1
# [4] = molecular target: Gal(b1-4)GlcNAc(b1-2)Man(a1-3)[Gal(b1-4)GlcNAc(b1-2)Man(a1-6)]Man(b1-4)GlcNAc(b1-4)[Fuc(a1-6)]GlcNAc
# Summary of the method: as §1
# [5] = molecular target: Gal(b1-4)GlcNAc(b1-2)Man(a1-3)[GlcNAc(b1-2)Man(a1-6)]Man(b1-4)GlcNAc(b1-4)GlcNAc
# Summary of the method: as §1
# [6] = molecular target: Gal(b1-4)GlcNAc(b1-2)Man(a1-3)[Man(a1-6)]Man(b1-4)GlcNAc(b1-4)GlcNAc
# Summary of the method: as §1
# [7] = molecular target: Gal(b1-4)GlcNAc(b1-2)Man(a1-6)Man(b1-4)GlcNAc(b1-4)GlcNAc
# Summary of the method: as §1
# [8] = molecular target: Gal(b1-4)GlcNAc(b1-2)Man(a1-6)[GlcNAc(b1-2)Man(a1-3)]Man(b1-4)GlcNAc(b1-4)GlcNAc
# Summary of the method: as §1
# [9] = molecular target: Gal(b1-4)GlcNAc(b1-2)Man(a1-6)[Man(a1-3)]Man(b1-4)GlcNAc(b1-4)GlcNAc
# Summary of the method: as §1
# [10] = molecular target: Gal(b1-4)GlcNAc(b1-2)[Gal(b1-4)GlcNAc(b1-4)]Man(a1-3)[Gal(b1-4)GlcNAc(b1-2)Man(a1-6)]Man(b1-4)GlcNAc(b1-4)GlcNAc
# Summary of the method: as §1
# [11] = molecular target: Gal(b1-4)GlcNAc(b1-2)[Gal(b1-4)GlcNAc(b1-4)]Man(a1-3)[Gal(b1-4)GlcNAc(b1-2)[Gal(b1-4)GlcNAc(b1-6)]Man(a1-6)]Man(b1-4)GlcNAc(b1-4)GlcNAc
# Summary of the method: as §1
# [12] = molecular target: Gal(b1-4)GlcNAc(b1-3)Gal(b1-3)GlcNAc
# Summary of the method: as §1
# [13] = molecular target: Gal(b1-4)GlcNAc(b1-3)Gal(b1-4)Glc
# Summary of the method: as §1
# [14] = molecular target: Gal(b1-4)GlcNAc(b1-3)Gal(b1-4)GlcNAc
# Summary of the method: as §1
# [15] = molecular target: Gal(b1-4)GlcNAc(b1-3)Gal(b1-4)GlcNAc(b1-3)Gal(b1-4)GlcNAc
# Summary of the method: as §1
# [16] = molecular target: Gal(b1-4)GlcNAc(b1-3)Gal(b1-4)[Fuc(a1-3)]GlcNAc(b1-3)Gal(b1-4)[Fuc(a1-3)]GlcNAc
# Summary of the method: as §1
# [17] = molecular target: Gal(b1-4)GlcNAc(b1-3)GalNAc
# Summary of the method: as §1
# [18] = molecular target: Gal(b1-4)GlcNAc(b1-3)[Gal(b1-4)GlcNAc(b1-6)]Gal(b1-4)GlcNAc
# Summary of the method: as §1
# [19] = molecular target: Gal(b1-4)GlcNAc(b1-3)[Gal(b1-4)GlcNAc(b1-6)]GalNAc
# Summary of the method: as §1
# [20] = molecular target: Gal(b1-4)GlcNAc(b1-3)[GlcNAc(b1-6)]Gal(b1-4)GlcNAc
# Summary of the method: as §1
# [21] = molecular target: Gal(b1-4)GlcNAc(b1-6)Gal(b1-4)GlcNAc
# Summary of the method: as §1
# [22] = molecular target: Gal(b1-4)GlcNAc(b1-6)GalNAc
# Summary of the method: as §1
# [23] = molecular target: Gal(b1-4)GlcNAc(b1-6)[Gal(b1-3)]GalNAc
# Summary of the method: as §1
# Gal3S(b1-3)GalNAc = molecular target: Gal3S(b1-3)GalNAc
# Summary of the method: as §1
# Gal3S(b1-3)GlcNAc = molecular target: Gal3S(b1-3)GlcNAc
# Summary of the method: as §1
# [24] = molecular target: Gal3S(b1-3)[Fuc(a1-4)]GlcNAc
# Summary of the method: as §1
# Gal3S(b1-4)Glc = molecular target: Gal3S(b1-4)Glc
# Summary of the method: as §1
# Gal3S(b1-4)Glc6S = molecular target: Gal3S(b1-4)Glc6S
# Summary of the method: as §1
# Gal3S(b1-4)GlcNAc = molecular target: Gal3S(b1-4)GlcNAc
# Summary of the method: as §1
# Gal3S(b1-4)GlcNAc6S = molecular target: Gal3S(b1-4)GlcNAc6S
# Summary of the method: as §1
binder,measurement,setting,value
B1,glycan array binding signal (z-score),[1],-0.829
same,glycan array binding signal (z-score),[2],-0.608
same,glycan array binding signal (z-score),[3],-0.515
same,glycan array binding signal (z-score),[4],0.086
same,glycan array binding signal (z-score),[5],-0.642
same,glycan array binding signal (z-score),[6],0.191
same,glycan array binding signal (z-score),[7],-0.416
same,glycan array binding signal (z-score),[8],0.034
same,glycan array binding signal (z-score),[9],-0.673
same,glycan array binding signal (z-score),[10],-0.093
same,glycan array binding signal (z-score),[11],-0.666
same,glycan array binding signal (z-score),[12],0.634
same,glycan array binding signal (z-score),[13],-0.23
same,glycan array binding signal (z-score),[14],-0.689
same,glycan array binding signal (z-score),[15],-0.604
same,glycan array binding signal (z-score),[16],1.48
same,glycan array binding signal (z-score),[17],0.523
same,glycan array binding signal (z-score),[18],-0.476
same,glycan array binding signal (z-score),[19],-0.633
same,glycan array binding signal (z-score),[20],0.34
same,glycan array binding signal (z-score),[21],-0.713
same,glycan array binding signal (z-score),[22],1.04
same,glycan array binding signal (z-score),[23],0.242
same,glycan array binding signal (z-score),Gal3S(b1-3)GalNAc,-0.543
same,glycan array binding signal (z-score),Gal3S(b1-3)GlcNAc,-0.659
same,glycan array binding signal (z-score),[24],-0.698
same,glycan array binding signal (z-score),Gal3S(b1-4)Glc,0.541
same,glycan array binding signal (z-score),Gal3S(b1-4)Glc6S,-0.401
same,glycan array binding signal (z-score),Gal3S(b1-4)GlcNAc,0.143
same,glycan array binding signal (z-score),Gal3S(b1-4)GlcNAc6S,-0.013

# Laid out differently: results already given.
binder	measurement	setting	value
B1	glycan array binding signal (z-score)	[19]	-0.633
same	glycan array binding signal (z-score)	[20]	0.34
same	glycan array binding signal (z-score)	[21]	-0.713
same	glycan array binding signal (z-score)	[22]	1.04
same	glycan array binding signal (z-score)	[23]	0.242
same	glycan array binding signal (z-score)	Gal3S(b1-3)GalNAc	-0.543
same	glycan array binding signal (z-score)	Gal3S(b1-3)GlcNAc	-0.659
same	glycan array binding signal (z-score)	[24]	-0.698
